In patent publication US8957019B2 (priority 2011, dated 2015):
Ends that are not written are not given here.

Tests used:
[1] = general procedure: Fmoc solid-phase peptide synthesis; Wang resin; DIC/HOBT, DMAP; conditions: whole synthesis, scale of the general procedure 0.04 mol
[2] = general procedure: Fmoc solid-phase peptide synthesis; Wang resin (Tianjin Nankai Synthesis Technology Co., Ltd.); DIC/HOBT, DMAP; conditions: whole synthesis, HPLC normalization method, scale of the general procedure 0.04 mol

GAGPHG-OH
isolated yield [1]: 20.5% | final HPLC purity [2]: 99.0%

GAGPHGG-OH
isolated yield [1]: 15.5% | final HPLC purity [2]: 99.0%
